# These are yes or no findings as the source states them, for the method shown. For part of these data: In cells and extracts the contact can be indirect. Some entries that bind do so weakly or less than the wild type.
# T1: Synechocystis sp. PCC 6803 GCS P-protein (glycine decarboxylase), recombinant (Synechocystis sp. PCC 6803) (UniProt P74416)
# T1 sequence: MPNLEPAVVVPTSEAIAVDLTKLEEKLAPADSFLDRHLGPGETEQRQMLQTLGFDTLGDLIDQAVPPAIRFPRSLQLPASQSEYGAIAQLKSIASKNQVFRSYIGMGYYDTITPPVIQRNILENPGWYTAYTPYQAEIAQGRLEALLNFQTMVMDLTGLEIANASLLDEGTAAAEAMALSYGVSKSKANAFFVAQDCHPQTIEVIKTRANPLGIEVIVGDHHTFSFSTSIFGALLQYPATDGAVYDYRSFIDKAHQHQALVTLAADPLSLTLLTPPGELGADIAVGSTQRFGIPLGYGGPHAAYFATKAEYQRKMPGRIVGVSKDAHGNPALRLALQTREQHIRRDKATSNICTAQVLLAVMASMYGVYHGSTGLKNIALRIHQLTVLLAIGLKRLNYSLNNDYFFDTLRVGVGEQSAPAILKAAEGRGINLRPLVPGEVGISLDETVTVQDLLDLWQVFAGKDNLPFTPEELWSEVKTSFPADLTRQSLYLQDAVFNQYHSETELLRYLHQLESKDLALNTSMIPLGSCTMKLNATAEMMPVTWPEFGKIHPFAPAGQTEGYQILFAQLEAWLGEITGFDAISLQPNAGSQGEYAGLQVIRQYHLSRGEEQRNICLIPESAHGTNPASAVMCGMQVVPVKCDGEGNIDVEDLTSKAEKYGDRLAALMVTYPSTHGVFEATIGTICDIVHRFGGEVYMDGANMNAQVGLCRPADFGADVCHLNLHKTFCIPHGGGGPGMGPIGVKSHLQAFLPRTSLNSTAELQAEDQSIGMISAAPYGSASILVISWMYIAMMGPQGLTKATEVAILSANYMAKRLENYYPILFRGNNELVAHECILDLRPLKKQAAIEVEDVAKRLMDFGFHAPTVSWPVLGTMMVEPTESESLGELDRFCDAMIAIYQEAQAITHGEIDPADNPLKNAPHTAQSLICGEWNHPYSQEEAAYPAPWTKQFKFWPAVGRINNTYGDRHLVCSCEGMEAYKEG
# T2: recombinant formate dehydrogenase (Pseudomonas sp. 101) (Pseudomonas sp. 101) (UniProt P33160)
# T2 sequence: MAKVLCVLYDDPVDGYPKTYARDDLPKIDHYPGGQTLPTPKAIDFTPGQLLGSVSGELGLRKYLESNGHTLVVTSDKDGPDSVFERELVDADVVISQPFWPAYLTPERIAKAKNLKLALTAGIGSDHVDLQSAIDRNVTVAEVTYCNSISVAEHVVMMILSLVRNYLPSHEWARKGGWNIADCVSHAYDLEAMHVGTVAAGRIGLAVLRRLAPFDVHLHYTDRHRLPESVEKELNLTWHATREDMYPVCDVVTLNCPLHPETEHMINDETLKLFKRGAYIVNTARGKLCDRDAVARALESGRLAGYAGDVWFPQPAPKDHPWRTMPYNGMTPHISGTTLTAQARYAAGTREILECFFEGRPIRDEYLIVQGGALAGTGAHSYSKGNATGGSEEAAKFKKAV
# T3: Synechocystis sp. PCC 6803 GCS L-protein (dihydrolipoamide dehydrogenase), recombinant (Synechocystis sp. PCC 6803) (UniProt P72740)
# T3 sequence: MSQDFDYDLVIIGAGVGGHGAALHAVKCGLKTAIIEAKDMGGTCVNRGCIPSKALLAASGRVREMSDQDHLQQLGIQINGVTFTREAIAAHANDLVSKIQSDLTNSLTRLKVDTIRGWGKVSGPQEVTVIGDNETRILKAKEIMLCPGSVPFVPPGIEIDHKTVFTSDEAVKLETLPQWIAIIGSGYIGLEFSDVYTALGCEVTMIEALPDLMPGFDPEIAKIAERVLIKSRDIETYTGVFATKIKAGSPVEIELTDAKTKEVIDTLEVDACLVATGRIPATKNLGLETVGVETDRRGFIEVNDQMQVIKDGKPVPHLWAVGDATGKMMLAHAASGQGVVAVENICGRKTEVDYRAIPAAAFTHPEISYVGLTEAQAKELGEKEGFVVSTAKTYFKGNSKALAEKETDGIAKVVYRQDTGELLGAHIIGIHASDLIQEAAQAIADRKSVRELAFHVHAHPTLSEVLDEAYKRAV
# T4: Synechocystis sp. PCC 6803 GCS T-protein (aminomethyltransferase), recombinant (Synechocystis sp. PCC 6803) (UniProt P54261)
# T4 sequence: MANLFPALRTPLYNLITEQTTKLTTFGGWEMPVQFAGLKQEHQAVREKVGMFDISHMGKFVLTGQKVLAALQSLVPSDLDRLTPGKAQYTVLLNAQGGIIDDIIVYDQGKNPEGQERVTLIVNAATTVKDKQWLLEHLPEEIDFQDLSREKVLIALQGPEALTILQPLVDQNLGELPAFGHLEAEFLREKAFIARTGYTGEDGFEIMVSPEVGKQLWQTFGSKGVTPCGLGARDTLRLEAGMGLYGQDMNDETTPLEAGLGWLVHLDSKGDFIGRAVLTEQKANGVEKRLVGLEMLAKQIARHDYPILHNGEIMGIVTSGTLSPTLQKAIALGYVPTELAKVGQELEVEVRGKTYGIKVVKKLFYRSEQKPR
# Assays:
# [1] = biological target: T1, Synechocystis sp. PCC 6803 GCS P-protein (glycine decarboxylase), recombinant (Synechocystis sp. PCC 6803); assay: pull-down
# [2] = biological target: T2, recombinant formate dehydrogenase (Pseudomonas sp. 101) (Pseudomonas sp. 101); assay: pull-down
# [3] = biological target: T3, Synechocystis sp. PCC 6803 GCS L-protein (dihydrolipoamide dehydrogenase), recombinant (Synechocystis sp. PCC 6803); assay: pull-down
# [4] = biological target: T4, Synechocystis sp. PCC 6803 GCS T-protein (aminomethyltransferase), recombinant (Synechocystis sp. PCC 6803); assay: molecular mass cut-off filtration
# [5] = biological target: T3, Synechocystis sp. PCC 6803 GCS L-protein (dihydrolipoamide dehydrogenase), recombinant (Synechocystis sp. PCC 6803); assay: molecular mass cut-off filtration
# [6] = biological target: T1, Synechocystis sp. PCC 6803 GCS P-protein (glycine decarboxylase), recombinant (Synechocystis sp. PCC 6803); assay: molecular mass cut-off filtration
binder,measurement,setting,value
"Synechocystis sp. PCC 6803 GCS L-protein (dihydrolipoamide dehydrogenase), recombinant (enzyme) MSQDFDYDLVIIGAGVGGHGAALHAVKCGLKTAIIEAKDMGGTCVNRGCIPSKALLAASGRVREMSDQDHLQQLGIQINGVTFTREAIAAHANDLVSKIQSDLTNSLTRLKVDTIRGWGKVSGPQEVTVIGDNETRILKAKEIMLCPGSVPFVPPGIEIDHKTVFTSDEAVKLETLPQWIAIIGSGYIGLEFSDVYTALGCEVTMIEALPDLMPGFDPEIAKIAERVLIKSRDIETYTGVFATKIKAGSPVEIELTDAKTKEVIDTLEVDACLVATGRIPATKNLGLETVGVETDRRGFIEVNDQMQVIKDGKPVPHLWAVGDATGKMMLAHAASGQGVVAVENICGRKTEVDYRAIPAAAFTHPEISYVGLTEAQAKELGEKEGFVVSTAKTYFKGNSKALAEKETDGIAKVVYRQDTGELLGAHIIGIHASDLIQEAAQAIADRKSVRELAFHVHAHPTLSEVLDEAYKRAV",binding,[1],binds
same,binding,[2],no binding
"Synechocystis sp. PCC 6803 GCS P-protein (glycine decarboxylase), recombinant (enzyme) MPNLEPAVVVPTSEAIAVDLTKLEEKLAPADSFLDRHLGPGETEQRQMLQTLGFDTLGDLIDQAVPPAIRFPRSLQLPASQSEYGAIAQLKSIASKNQVFRSYIGMGYYDTITPPVIQRNILENPGWYTAYTPYQAEIAQGRLEALLNFQTMVMDLTGLEIANASLLDEGTAAAEAMALSYGVSKSKANAFFVAQDCHPQTIEVIKTRANPLGIEVIVGDHHTFSFSTSIFGALLQYPATDGAVYDYRSFIDKAHQHQALVTLAADPLSLTLLTPPGELGADIAVGSTQRFGIPLGYGGPHAAYFATKAEYQRKMPGRIVGVSKDAHGNPALRLALQTREQHIRRDKATSNICTAQVLLAVMASMYGVYHGSTGLKNIALRIHQLTVLLAIGLKRLNYSLNNDYFFDTLRVGVGEQSAPAILKAAEGRGINLRPLVPGEVGISLDETVTVQDLLDLWQVFAGKDNLPFTPEELWSEVKTSFPADLTRQSLYLQDAVFNQYHSETELLRYLHQLESKDLALNTSMIPLGSCTMKLNATAEMMPVTWPEFGKIHPFAPAGQTEGYQILFAQLEAWLGEITGFDAISLQPNAGSQGEYAGLQVIRQYHLSRGEEQRNICLIPESAHGTNPASAVMCGMQVVPVKCDGEGNIDVEDLTSKAEKYGDRLAALMVTYPSTHGVFEATIGTICDIVHRFGGEVYMDGANMNAQVGLCRPADFGADVCHLNLHKTFCIPHGGGGPGMGPIGVKSHLQAFLPRTSLNSTAELQAEDQSIGMISAAPYGSASILVISWMYIAMMGPQGLTKATEVAILSANYMAKRLENYYPILFRGNNELVAHECILDLRPLKKQAAIEVEDVAKRLMDFGFHAPTVSWPVLGTMMVEPTESESLGELDRFCDAMIAIYQEAQAITHGEIDPADNPLKNAPHTAQSLICGEWNHPYSQEEAAYPAPWTKQFKFWPAVGRINNTYGDRHLVCSCEGMEAYKEG",binding,[3],binds
"Synechocystis sp. PCC 6803 GCS H-apoprotein (non-lipoylated), recombinant (protein, UniProt P73560 1-132) MELEHPDDLYYLDSHEYVRFDGETATIGLSAFAVDELGDIVFVELPEEGDKVEFEQSMGAVESVKAASDLYSPVTGTVIEKNSALEDQPELLNQDPYGEEGWLIKVRLDDVEDAKEGLMAAGDYRATLETGD",binding,[4],binds
same,binding,[5],binds
same,binding,[6],binds

# Source: paper doi:10.1101/2020.03.16.993188 (bioRxiv, 2020)
